PubChem BioAssay AID652259 – Drosophila RNAi Screening Center – 2013
Screen: 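Genome-wide hunt for genes that control Wingless pathway activity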 (primary screen). Cell system: Drosophila clone 8 imaginal disc epithelial cells. Knock-down reagent: long dsRNA against Drosophila genes. Treatment: pathway stimulated by co-transfected Wingless expression plasmid. Measured: 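Firefly luciferase from a tcf-site Wingless reporter, measured alongside co-transfected Renilla luciferase that tracks transfection; pathway stimulated by a Wingless plasmid; the firefly-to-Renilla ratio is not deposited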. Reading the numbers: firefly reporter light: higher = more Wg reporter light, before normalisation; Renilla control light: higher = more transfected or surviving cells. Active means: 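Strong candidates differ from their plate mean by at least two out of four per-plate statistical tests; weak candidates meet just one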. Calls: active = candidate regulator (raises or lowers reporter); inactive = not a candidate.
The deposit covers about 22,000 reagents; below is a random part of those that have a named target and a result. Over the whole deposit, 233 (1.1%) got an active call. 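Light values are raw, unnormalised plate reads; the ratio scores behind the reporter calls were not deposited.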 Names joined by + are all predicted targets of the reagent. No sequences are given here. The record does not give: the amount of reagent, the time to read-out, the dose of the treatment.

| Gene | amplicon | firefly reporter light, replicate 1 | firefly reporter light, replicate 2 | Renilla control light, replicate 1 | Renilla control light, replicate 2 | Call |
| --- | --- | --- | --- | --- | --- | --- |
| CG7126 | DRSC16201 | 15172 | – | 3293 | – | inactive |
| CG5199 | DRSC11770 | 15100 | – | 4336 | – | inactive |
| bin | DRSC10332 | 2176 | 5729 | 1637 | 2037 | inactive |
| Su(H) | DRSC03445 | 1907 | 3312 | 1000 | 2164 | inactive |
| CG2310 | DRSC15438 | 7666 | – | 2258 | – | inactive |
| ND-49L | DRSC14437 | 10237 | – | 8696 | – | inactive |
| CG31230 | DRSC22130 | 8.64e5 | 8.44e5 | 3.66e5 | 3.77e5 | inactive |
| Ras85D | DRSC16814 | 18737 | – | 3187 | – | inactive |
| CG11369 | DRSC17779 | 30929 | – | 9536 | – | inactive |
| chp | DRSC16925 | 1952 | 6028 | 659 | 2088 | inactive |
| Grip91 | DRSC20249 | 1610 | 9808 | 716 | 2041 | inactive |
| Sec71 | DRSC01893 | 2710 | 8129 | 1018 | 3138 | inactive |
| agt | DRSC12611 | 10818 | – | 2267 | – | inactive |
| CG42249 | DRSC19383 | 22296 | – | 9819 | – | inactive |
| CG42249 | DRSC19826 | 12624 | – | 8619 | – | inactive |
| CDase | DRSC14932 | 1113 | 4377 | 784 | 960 | inactive |
| Pkn + Tsen15 | DRSC21969 | 1.03e6 | 8.37e5 | 4.96e5 | 136 | inactive |
| CG11127 | DRSC06043 | 11120 | – | 4349 | – | inactive |
| CtsL3 | DRSC12171 | 10272 | – | 3185 | – | inactive |
| Naa80 | DRSC16429 | 19611 | – | 3100 | – | inactive |
| Cyp4e2 | DRSC07371 | 5737 | – | 2096 | – | inactive |
| Drp1 | DRSC00574 | 9354 | – | 3394 | – | inactive |
| betaTub85D | DRSC16910 | 17350 | – | 2957 | – | inactive |
| CG9395 | DRSC03218 | 3757 | 8075 | 1942 | 3443 | inactive |
| CG34188 | DRSC05549 | 17379 | – | 14436 | – | inactive |
| t-Grip91 | DRSC01506 | 19801 | – | 9312 | – | inactive |
| CG43052 | DRSC03059 | 3490 | 10002 | 1432 | 4080 | inactive |
| CG31787 | DRSC01632 | 20589 | – | 10938 | – | inactive |
| CG13575 | DRSC04211 | 3076 | 12263 | 914 | 3968 | inactive |
| CG13575 | DRSC22851 | 4.40e5 | 4.46e5 | 1.83e5 | 1.84e5 | inactive |
| kek6 | DRSC15299 | 22631 | – | 9292 | – | inactive |
| l(2)05714 | DRSC03118 | 8784 | – | 3403 | – | inactive |
| Fatp (retired record) | DRSC03054 | 8199 | – | 2106 | – | inactive |
| CG13064 | DRSC09947 | 8264 | – | 3574 | – | inactive |
| CG12880 | DRSC14568 | 1976 | 8508 | 730 | 1798 | inactive |
| Fdh | DRSC16670 | 12598 | – | 3269 | – | inactive |
| CG14805 | DRSC18554 | 18866 | – | 13122 | – | inactive |
| GstT3 | DRSC20541 | 16828 | – | 8699 | – | inactive |
| snRNA:U4atac | DRSC12055 | 3651 | – | 1357 | – | inactive |
| CG9150 | DRSC03148 | 2108 | 7313 | 631 | 2105 | inactive |
| Upf2 | DRSC18218 | 14280 | – | 7641 | – | inactive |
| tsh | DRSC03740 | 2563 | 4449 | 752 | 1936 | inactive |
| Ublcp1 | DRSC14149 | 2448 | 5536 | 1136 | 1768 | inactive |
| kl-3 (retired record) | DRSC20891 | 15904 | – | 9401 | – | inactive |
| SPH93 | DRSC02978 | 3076 | 8605 | 1450 | 3688 | inactive |
| SH3PX1 | DRSC11139 | 7824 | – | 2891 | – | inactive |
| Hen1 | DRSC06139 | 11604 | – | 3077 | – | inactive |
| Hen1 | DRSC06140 | 5104 | – | 2536 | – | inactive |
| CG12535 | DRSC17838 | 24825 | – | 20904 | – | inactive |
| hfw | DRSC18506 | 13202 | – | 10841 | – | inactive |
| Smg5 | DRSC03124 | 6886 | – | 2381 | – | inactive |
| ATP6 (retired record) | DRSC21278 | 16485 | – | 8731 | – | inactive |
| Cals | DRSC17196 | 3689 | 11608 | 1521 | 3540 | inactive |
| Cals | DRSC21661 | 3.08e5 | 3.61e5 | 1.46e5 | 1.69e5 | inactive |
| beta4GalNAcTB | DRSC14869 | 6690 | – | 2930 | – | inactive |
| CG2145 | DRSC19835 | 3804 | 7943 | 1136 | 2283 | inactive |
| Mtpbeta | DRSC04663 | 13762 | – | 4181 | – | inactive |
| VhaSFD | DRSC03471 | 7559 | – | 1986 | – | inactive |
| whd | DRSC07351 | 9707 | – | 2833 | – | inactive |
| ninaB | DRSC16807 | 18569 | – | 3593 | – | inactive |
| mop | DRSC11065 | 3048 | – | 1184 | – | inactive |
| Prat2 | DRSC09692 | 7015 | – | 3707 | – | inactive |
| mad2 | DRSC10274 | 1584 | 7004 | 1157 | 1994 | inactive |
| ac | DRSC18734 | 11280 | – | 7479 | – | inactive |
| Doa | DRSC13892 | 3917 | – | 2054 | – | inactive |
| Doa | DRSC13893 | 5673 | – | 1936 | – | inactive |
| Doa | DRSC13895 | 4140 | – | 1981 | – | inactive |
| Doa | DRSC13896 | 3715 | – | 1946 | – | inactive |
| Doa | DRSC13897 | 4080 | – | 2054 | – | inactive |
| Doa | DRSC16650 | 3843 | 8301 | 1808 | 1300 | inactive |
| obst-F | DRSC10805 | 14675 | – | 2944 | – | inactive |
| CG7328 | DRSC10812 | 13497 | – | 4272 | – | inactive |
| Stip1 | DRSC00756 | 9497 | – | 3921 | – | inactive |

Part of the list above, reduced to “firefly reporter light, replicate 1”:
CG42249 [DRSC19826]: 12624
CDase [DRSC14932]: 1113
Pkn + Tsen15 [DRSC21969]: 1.03e6
CG11127 [DRSC06043]: 11120
CtsL3 [DRSC12171]: 10272
Naa80 [DRSC16429]: 19611
Cyp4e2 [DRSC07371]: 5737
Drp1 [DRSC00574]: 9354
betaTub85D [DRSC16910]: 17350
CG9395 [DRSC03218]: 3757
CG34188 [DRSC05549]: 17379
t-Grip91 [DRSC01506]: 19801
